Source: PubChem BioAssay AID1671190 (National Center for Advancing Translational Sciences (NCATS), 2021)
Among all 580,000 compounds or so, about 6,100 (1.1%) were called active. Inconclusive results, whose numbers are uncertain, are shown with a selection of clear calls. The call rests on the fitted dose curve; in most records, active means well fitted inhibition curve with a large enough effect; inconclusive means small, poorly fitted or top-dose-only effect, or another doubt; inactive means no such curve, though single readings can be large or run the other way. A potency beside an inconclusive call is a rough fit, not a confirmed value.

The chains behind the UniProt entries cited, without tags or fusion partners. Where a name states a change or a piece, a line headed by the entry shows the natural chain unless it says otherwise.
UniProt P18054: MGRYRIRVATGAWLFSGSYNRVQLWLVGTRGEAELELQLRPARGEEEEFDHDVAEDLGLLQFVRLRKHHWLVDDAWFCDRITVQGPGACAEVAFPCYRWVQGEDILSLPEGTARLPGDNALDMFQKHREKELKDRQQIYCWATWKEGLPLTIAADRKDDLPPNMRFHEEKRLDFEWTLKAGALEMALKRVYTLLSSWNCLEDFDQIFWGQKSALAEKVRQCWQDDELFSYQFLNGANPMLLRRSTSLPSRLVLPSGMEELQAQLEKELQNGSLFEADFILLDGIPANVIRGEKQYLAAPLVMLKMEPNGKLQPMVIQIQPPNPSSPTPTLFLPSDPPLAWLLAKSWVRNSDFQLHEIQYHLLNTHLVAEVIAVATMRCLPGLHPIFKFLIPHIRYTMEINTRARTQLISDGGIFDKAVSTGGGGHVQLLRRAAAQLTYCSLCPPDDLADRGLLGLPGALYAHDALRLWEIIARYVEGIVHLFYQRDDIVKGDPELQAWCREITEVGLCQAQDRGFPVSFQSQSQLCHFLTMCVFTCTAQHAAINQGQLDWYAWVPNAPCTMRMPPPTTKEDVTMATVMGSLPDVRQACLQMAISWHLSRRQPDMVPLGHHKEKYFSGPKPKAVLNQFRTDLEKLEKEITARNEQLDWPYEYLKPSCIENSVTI

Target: Polyunsaturated fatty acid lipoxygenase ALOX12 (Homo sapiens) (UniProt P18054)
Assay: Primary qHTS assay for inhibitors of human arachidonate 12S-lipoxygenase (ALOX12): Round 2
Settings: purified 12hLO, xylenol orange hydroperoxide absorbance; activity change, negative = inhibition: at 108 µM (top of the series) unless noted
Summary of the method: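 Purified human 12hLO at 150 nM in 25 mM Hepes, 0.01% Triton X-100, pH 7.0, preincubated 15 min at room temperature with compound. Reaction started with 40 uM arachidonic acid, 30 min at room temperature. Hydroperoxide measured by Fe-xylenol orange, 573/405 nm absorbance ratio.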
On the % scale 0 is the no-effect control and ±100 the full control effect; potency means the concentration at half of the fitted maximal effect.

SMILES	Potency	activity change, negative = inhibition
CCOc1ccccc1CN1CCC2(CCN(C(=O)c3ccccc3)CC2)Oc2ccccc21	inconclusive: 35.5 µM [inhibitor, partial curve]	–
CCCN1CCN(C(=O)c2c(C)oc3c2CN(Cc2ccc(C)cc2)CC3)CC1	active: 12.6 µM	–
Cc1ccc(S(=O)(=O)N2CCCC(C(=O)Nc3cccnc3)C2)cc1 (configuration not stated)	inconclusive: 141 µM [inhibitor, partial curve, poor fit]	–
O=S(=O)(Nc1cccc(Cl)c1)c1ccc2[nH]c3c(c2c1)CCCCCC3	inconclusive: 44.7 µM [inhibitor, partial curve, poor fit]	–
Cc1c(NC(=O)/C(C#N)=C/c2ccc(-c3ccc(Cl)cc3)o2)c(=O)n(-c2ccccc2)n1C	inconclusive: 31.6 µM [inhibitor, partial curve, poor fit]	–
CCOc1ccccc1C1C(C#N)=C(N)Oc2cc(C)n(Cc3ccccn3)c(=O)c21 (configuration not stated)	inactive	–
CC(C)Oc1cccc(NC(=O)C2CCN(S(=O)(=O)Cc3ccccc3)CC2)c1	–	inconclusive: -39.7% [inhibitor]
CCOC(=O)C1CCN(C(=O)CC(c2ccc(OC)c(OC)c2)c2c[nH]c3c(CC)cccc23)CC1 (configuration not stated)	inconclusive: 20 µM [inhibitor, single point]	–
CC(C)C[C@@H]1CN(CCCC[C@H]2CNC(=O)C(=O)N2CCC2CCCCC2)C(=O)C(=O)N1CCC1CCCCC1	inconclusive: 28.2 µM [inhibitor, partial curve]	–
Clc1ccc(OCCN2CCOCC2)cc1Cl	inconclusive: 7.08 µM [inhibitor, partial curve, poor fit]	–
Cc1ccc(CNC(=O)C2c3ccccc3C(=O)N(C)C2c2c[nH]c3ccccc23)o1 (configuration not stated)	inconclusive: 79.4 µM [inhibitor, single point]	–
CCN1CCN(C(=O)C(=O)c2cn(CC(=O)N3CCCCCC3)c3ccccc23)CC1	inactive	–
O=C(c1cc(-c2ccc(Cl)s2)nc2ccccc12)N1CCOCC1	inconclusive: 100 µM [inhibitor, single point]	–
Cc1ccc2c(C)nc(N/C(N)=N/S(=O)(=O)c3ccc([N+](=O)[O-])cc3)nc2c1	inactive	–
Cc1ccc2nc(/C(C#N)=C/c3cccc(Br)c3)[nH]c2c1	inconclusive: 89.1 µM [inhibitor, single point]	–
COc1cccc(N=Nc2c(N)[nH][nH]c2=O)c1	inconclusive: 28.2 µM [inhibitor, partial curve, poor fit]	–
Cc1noc(C)c1CSc1nc2ccccc2s1	inconclusive: 112 µM [inhibitor, single point]	–
CCOc1ccc(OCC)c(S(=O)(=O)n2nnc3ccccc32)c1	inconclusive: 3.16 µM [inhibitor, full curve, poor fit]	–
C(=NN1CCCCCC1)c1cccc2ccccc12	inconclusive: 50.1 µM [inhibitor, partial curve, poor fit]	–
COC(=O)c1c(Cl)c(C)nc2c1c(C)nn2C	inactive	–
CC(C)c1ccc([S+](=O)([O-])c2nnn3c2nc(NCc2ccncc2)c2ccccc23)cc1	inconclusive: 79.4 µM [inhibitor, partial curve, poor fit]	–

In a second layout: results already given.
SMILES | Potency | activity change, negative = inhibition
CCOc1ccccc1C1C(C#N)=C(N)Oc2cc(C)n(Cc3ccccn3)c(=O)c21 (configuration not stated) | inactive | –
CC(C)Oc1cccc(NC(=O)C2CCN(S(=O)(=O)Cc3ccccc3)CC2)c1 | – | inconclusive: -39.7% [inhibitor]
Cc1ccc(CNC(=O)C2c3ccccc3C(=O)N(C)C2c2c[nH]c3ccccc23)o1 (configuration not stated) | inconclusive: 79.4 µM [inhibitor, single point] | –

Additional structures

SMILES	Potency	activity change, negative = inhibition
OC(c1cc(C(F)(F)F)nc2c(C(F)(F)F)cccc12)C1CCCCN1 (configuration not stated)	inconclusive: 44.7 µM [inhibitor, partial curve, poor fit]	–
CC1C(c2cccs2)=[N+]([O-])C(C)(c2ccc(Cl)cc2)N1O (configuration not stated)	inconclusive: 56.2 µM [inhibitor, single point]	–
Cn1c(=O)c2c(nc(SCC(=O)Nc3ccccc3)n2CCCc2ccccc2)n(C)c1=O	inconclusive: 56.2 µM [inhibitor, partial curve, poor fit]	–
CCOC(=O)C(NC(=O)c1cc(C)cc(C)c1)C(=O)OCC	inactive	–
Cc1nc2sccn2c1-c1nc(-c2cc3ccccc3o2)cs1	inconclusive: 35.5 µM [inhibitor, partial curve, poor fit]	–
CC(=O)c1c(C)[nH]c(C(=O)OCC(=O)NC(C)c2ccccc2)c1C (configuration not stated)	inconclusive: 112 µM [inhibitor, single point]	–
CCN(c1ccccc1)S(=O)(=O)c1cccc(C(=O)NCC2(N(C)C)CCCCC2)c1	inactive	–
Fc1ccccc1C(c1nnnn1C1CCCC1)N1CCN(Cc2ccccc2)CC1 (configuration not stated)	inconclusive: 39.8 µM [inhibitor, partial curve, poor fit]	–
CCN1CCN(C(=O)c2ccc3nc(-c4ccccc4)c(-c4ccccc4)nc3c2)CC1	inconclusive: 44.7 µM [inhibitor, partial curve, poor fit]	–
CC(=O)C1=C(C)N(Cc2ccccc2)C(=O)N[C@@H]1c1cccc(C(F)(F)F)c1	inactive	–
Cc1cc(NC(=O)CCCN2C(=O)/C(=C/c3ccccc3Cl)SC2=S)no1	inconclusive: 44.7 µM [inhibitor, partial curve]	–
CCN(C(=O)/C=C/c1ccc2c(c1)OCO2)c1ccccc1	inactive	–
COc1cccc(OCC(=O)NNC(=S)Nc2ccc(Cl)cc2Cl)c1	inconclusive: 44.7 µM [inhibitor, partial curve, poor fit]	–
O=C(NC1C2CC3CC(C2)CC1C3)c1cc(-c2ccncc2)nc2ccc(Br)cc12 (configuration not stated)	inconclusive: 50.1 µM [inhibitor, partial curve, poor fit]	–
O=C(NCCNCc1c[nH]c2ccccc12)c1cccs1	inconclusive: 10 µM [inhibitor, full curve]	–
CCc1nc2ccccc2c(C(=O)OCC(=O)NC2(C#N)CCCC2)c1C	inactive	–
COc1ccc2c(c1)CCC1C2=NN(/C(C)=C/C(C)=O)C1c1cccc(F)c1 (configuration not stated)	inconclusive: 39.8 µM [inhibitor, partial curve, poor fit]	–
Cc1ccc(N2CCN(C(=O)c3cc(COc4c(C)cccc4C)on3)CC2)c(C)c1	inconclusive: 56.2 µM [inhibitor, partial curve, poor fit]	–
CCc1c(/C(=N/O)c2ccc(C)cc2)oc2ccc3c(C)cc(=O)oc3c12	inconclusive: 35.5 µM [inhibitor, partial curve, poor fit]	–
COc1cc(CN2CCC3(CCC(CNC(=O)c4ccco4)O3)CC2)ccc1O (configuration not stated)	inconclusive: 126 µM [inhibitor, single point]	–
Cc1cc(=O)n2[nH]c(SCc3c(F)cccc3Cl)nc2n1	inconclusive: 126 µM [inhibitor, partial curve, poor fit]	–

SMILES	Potency	activity change, negative = inhibition
O=c1[nH]c(=S)[nH]c2c1C(c1cccc(C(F)(F)F)c1)OC(CCc1ccccc1)C2 (configuration not stated)	inconclusive: 31.6 µM [inhibitor, partial curve, poor fit]	–
COc1ccc(Nc2c(-c3ccc(Cl)cc3)nc3cnccn23)cc1OC	inconclusive: 50.1 µM [inhibitor, partial curve, poor fit]	–
COc1ccc(-n2nc(C3CCN(Cc4ccc(C(F)(F)F)cc4)CC3)[nH]c2=O)cc1	inconclusive: 50.1 µM [inhibitor, partial curve]	–
C/C(=N\NC(=O)c1c([N+](=O)[O-])c(C)nn1C)c1ccc(NC(=O)c2ccc(C)o2)cc1	inactive	–
Cc1noc(C)c1-c1cc2cc(CN(C)C)oc2c(Nc2cccc([S+](C)(=O)[O-])c2)n1	inconclusive: 44.7 µM [inhibitor, full curve, poor fit]	–
O=S(=O)(c1ccc(-c2csc(Nc3ccc(F)cc3)n2)cc1)N1CCCCC1	inconclusive: 12.6 µM [inhibitor, full curve]	–
CCC(C)(C)C1CCc2c(sc(NC(=O)CCl)c2C#N)C1 (configuration not stated)	inconclusive: 31.6 µM [inhibitor, single point]	–
O=C(COC(=O)C1CC2C=CC1C2)Nc1ccc([N+](=O)[O-])cc1 (configuration not stated)	inactive	–
COc1ccc(CN2C[C@H]3CN(Cc4c[nH]c5ccccc45)CCN3C2=O)cc1	inconclusive: 39.8 µM [inhibitor, partial curve]	–
O=C1NN(c2ccccc2)C(=O)/C1=C/c1ccc(-c2ccc(C(=O)O)cc2)o1	inconclusive: 44.7 µM [inhibitor, partial curve, poor fit]	–
Cc1cc(NC2CCCCC2)c2ccccc2n1	inconclusive: 28.2 µM [inhibitor, partial curve, poor fit]	–
COc1ccc(CNC(=O)COC(=O)c2ccc(OC)c(S(=O)(=O)N3CCCCCC3)c2)cc1	inactive	–
Cc1ccccc1S(=O)(=O)N1[C@@H](c2cccc(Cl)c2)C(C(=O)O)=CC[C@H]1c1ccc(Cl)cc1	inconclusive: 56.2 µM [inhibitor, partial curve, poor fit]	–
Cc1ccc(-c2ccc(=O)n(Cc3ccc(F)cc3)n2)cc1	inconclusive: 112 µM [inhibitor, single point]	–
Cc1nc(NC(=O)C(C)C)ccc1I	inconclusive: 100 µM [inhibitor, single point]	–
CCCCc1c(-c2ccccc2OC)ncn1Cc1cc(F)cc(F)c1	inactive	–
Cc1ccc(C(=O)NCC(=O)OC(C)C(=O)Nc2ccccc2[N+](=O)[O-])s1 (configuration not stated)	inactive	–
COc1ccc(C(=O)NC2CCC(C)CC2)cc1S(=O)(=O)N(C)C (configuration not stated)	inconclusive: 50.1 µM [inhibitor, partial curve, poor fit]	–
Cc1ccc(CN2CCSc3ccc(C(=O)Nc4ccc(Cl)cc4)cc32)cc1	inconclusive: 56.2 µM [inhibitor, partial curve, poor fit]	–
Cn1c(N)c(C(=O)COC(=O)c2cc(C3CC3)nc3ccccc23)c(=O)n(C)c1=O	inactive	–
